From patent EP0552417B1 (priority 1991, dated 1993)

Test: general procedure: solution-phase peptide synthesis; DCC/HONB (ONB active esters)
Details: coupling step

Point of comparison: “Boc-Orn(COCH2-Ind)-Asp(OBzl)-D-Leu-Leu-D-Trp-D-Asp(OBzl)-OPac”, step yield 87.4%. Against it:
- Boc-D(OBn)[dL]L[dW][dD](OBn)-OPac — lower, 82.5%
- PEPTIDE1{[dD].W.D.[dV].L.[dW]}$PEPTIDE1,PEPTIDE1,6:R2-1:R1$$$V2.0 — higher, 93.2%
- Boc-WD(OBn)[dL]L-OPac — higher, 90.7%
- Boc-D(OBn)A[dL]L-OPac — higher, 94.2%
- Boc-D-γMeLeu-Leu-D-Trp-D-Asp(OBzl)-Trp-Asp(OBzl)-OPac — higher, 98.0%
- Boc-[dW][dD](OBn)E(OBn)A[dL]L-OPac — lower, 75.4%
- Boc-D-Asp(OBzl)-Asn(NHCH2CH2Ind)-Asp(OBzl)-D-Thg(2)-Leu-OPac — lower, 85.9%
- Boc-[dW][dD](OBn)GA[dL]L-OPac — lower, 49.1%
- Boc-D-Trp-D-Asp(OBzl)-Asn(CH2CH2-Ind)-Asp(OBzl)-D-Leu-Leu-OPac — higher, 89.5%
- Boc-D-Asp(OBzl)-Asn(CH2CH2-Ind)-Asp(OBzl)-D-Leu-Leu-OPac — lower, 85.4%
- Boc-D-Trp-D-Asp(OBzl)-Asn(CH2CH2Ph)-Asp(OBzl)-D-Leu-Leu-OPac — higher, 90.5%
- Boc-[dW][dD](OBn)WD(OBn)[dL]L-OPac — higher, 93.1%
- Boc-Asn(CH2CH2Ph)-Asp(OBzl)-D-Leu-Leu-OPac — higher, 88.7%
- Boc-[dD](OBn)[Hyp](Bn)D(OBn)[dL]L-OPac — lower, 84.3%
- Boc-Orn(COCH2Ph)-Asp(OBzl)-D-Leu-Leu-D-Trp-D-Asp(OBzl)-OPac — lower, 78.4%
- Boc-Orn(COPh)-Asp(OBzl)-D-Leu-Leu-D-Trp-D-Asp(OBzl)-OPac — higher, 94.9%
- Boc-[dD](OBn)WD(OBn)[dL]L-OPac — lower, 86.7%
- Boc-E(OBn)A[dL]L-OPac — higher, 92.4%
- Boc-L[dW][dD](OBn)WD(OBn)-OPac — lower, 82.2%
- PEPTIDE1{[dD].[dA].D.[dL].L.[dW]}$PEPTIDE1,PEPTIDE1,6:R2-1:R1$$$V2.0 — higher, 91.8%
- Boc-D-Trp-D-Asp(OBzl)-Asn(CH2CH2-Ind)-Asp(OBzl)-OPac — lower, 56.9%
- Boc-Asn(NHCH2CH2Ind)-Asp(OBzl)-D-Thg(2)-Leu-OPac — higher, 96.7%
- Boc-[dW][dD](OBn)PD(OBn)[dL]L-OPac — lower, 78.7%
- PEPTIDE1{[dD].W.D.[dL].L.[D-Trp(Ac)]}$PEPTIDE1,PEPTIDE1,1:R1-6:R2$$$V2.0 — lower, 79.6%
- Boc-[dD](OBn)D(OBn)A[dL]L-OPac — lower, 87.0%
- Boc-L[dW][dD](OBn)[Hyp](Bn)D(OBn)-OPac — higher, 94.8%
- Boc-Asn(CH2Ph)-Asp(OBzl)-D-Leu-Leu-OPac — lower, 86.7%
- Boc-Leu-D-Trp-D-Asp(OBzl)-Gln(Bzl)-Asp(OBzl)-OPac — higher, 89.3%
- Boc-D-Thg(2)-Leu-D-Trp-D-Asp(OBzl)-Asn(CH2CH2-Ind)-Asp(OBzl)-OPac — higher, 98.7%
- PEPTIDE1{[dD].D.L.[dL].L.[dW]}$PEPTIDE1,PEPTIDE1,6:R2-1:R1$$$V2.0 — higher, 94.9%
- Boc-D-Trp-D-Asp(OBzl)-Asn(NHCH2CH2Ind)-Asp(OBzl)-D-Thg(2)-Leu-OPac — lower, 68.0%
- Boc-D-Trp-D-Asp(OBzl)-Gln(Bzl)-Asp(OBzl)-OPac — higher, 94.2%
- Boc-Orn(COCH2CH2Ph)-Asp(OBzl)-D-Leu-Leu-D-Trp-D-Asp(OBzl)-OPac — higher, 91.0%
- Boc-Acbu-Leu-D-Trp-D-Asp(OBzl)-Trp-Asp(OBzl)-OPac — higher, 94.0%

Same assay, conditions: cyclisation step

Point of comparison: “cyclo[-D-Asp-Orn(COCH2-Ind)-Asp-D-Leu-Leu-D-Trp-]”, cyclisation yield 12.5%. Against it:
- cyclo[-D-Asp-Asn(CH2CH2-Ind)-Asp-D-Thg(2)-Leu-D-Trp-] — lower, 9.5%
- PEPTIDE1{[dD].A.[dE].[dL].L.[dW]}$PEPTIDE1,PEPTIDE1,6:R2-1:R1$$$V2.0 — lower, 10.8%
- cyclo([dD]EA[dL]L[dW]) — higher, 20.6%
- PEPTIDE1{[dD].A.D.[dL].L.[dW]}$PEPTIDE1,PEPTIDE1,6:R2-1:R1$$$V2.0 — higher, 18.2%
- PEPTIDE1{[dD].A.E.[dL].L.[dW]}$PEPTIDE1,PEPTIDE1,6:R2-1:R1$$$V2.0 — higher, 24.1%
- cyclo[-D-Asp-Orn(COCH2CH2Ph)-Asp-D-Leu-Leu-D-Trp-] — higher, 40.9%
- cyclo([dD]GA[dL]L[dW]) — higher, 19.2%
- PEPTIDE1{[dD].A.[dD].[dL].L.[dW]}$PEPTIDE1,PEPTIDE1,6:R2-1:R1$$$V2.0 — higher, 15.3%
- cyclo[-D-Asp-Trp-Asp-D-Thg(2)-Leu-D-Trp-] — lower, 4.6%
- cyclo([dD]PD[dL]L[dW]) — higher, 47.4%
- cyclo[-D-Asp-Trp-Asp-D-γMeLeu-Leu-D-Trp-] — higher, 51.5%
- cyclo from Boc-Acbu-Leu-D-Trp-D-Asp(OBzl)-Trp-Asp(OBzl)-OH — lower, 10.4%
- cyclo[-D-Asp-Gln(Bzl)-Asp-D-Thg(2)-Leu-D-Trp-] — lower, 8.8%
- cyclo[-D-Asp-Hyp(Bzl)-Asp-D-Thg(2)-Leu-D-Trp-] — lower, 5.7%
- cyclo([dD]WD[dTle]L[dW]) — higher, 42.8%
- cyclo([dD]WD[dL]L[dW]) — higher, 52.9%
- cyclo[-D-Asp(OBzl)-Asn(NHCH2CH2Ind)-Asp(OBzl)-D-Thg(2)-Leu-D-Trp-] — higher, 90.4%

Same assay, conditions: late stage modification step

Point of comparison: “Boc-D-Trp-D-Asp(OBzl)-Asn(NHCH2CH2Ind)-Asp(OBzl)-D-Thg(2)-Leu-OH”, step yield 98.0%. Against it:
- cyclo([dD]WD[dPhg]L[dW]) — lower, 93.0%
- Boc-Acbu-Leu-D-Trp-D-Asp(OBzl)-Trp-Asp(OBzl)-OH — lower, 97.5%
- PEPTIDE1{[dD].W.L.[dL].L.[dW]}$PEPTIDE1,PEPTIDE1,6:R2-1:R1$$$V2.0 — lower, 97.5%
- Boc-[dW][dD](OBn)WD(OBn)[dL]L-OH — lower, 96.1%
- Boc-[dW][dD](OBn)PD(OBn)[dL]L-OH — lower, 97.9%
- Boc-D-γMeLeu-Leu-D-Trp-D-Asp(OBzl)-Trp-Asp(OBzl)-OH — lower, 97.8%
- cyclo([dD][Hyp](Bn)D[dL]L[dW]) — lower, 82.6%
- Boc-D-Thg(2)-Leu-D-Trp-D-Asp(OBzl)-Gln(Bzl)-Asp(OBzl)-OH — lower, 94.2%
- Boc-Orn(COCH2-Ind)-Asp(OBzl)-D-Leu-Leu-D-Trp-D-Asp(OBzl)-OH — lower, 97.6%
- Boc-[dW][dD](OBn)GA[dL]L-OH — lower, 87.5%
- Boc-Orn(COCH2CH2Ph)-Asp(OBzl)-D-Leu-Leu-D-Trp-D-Asp(OBzl)-OH — higher, 98.3%
- Boc-[dW][dD](OBn)D(OBn)A[dL]L-OH — lower, 81.0%
- Cyclo[-D-Asp-Azc-Asp-D-Leu-Leu-D-Trp-] — lower, 93.5%
- Boc-[dW][dD](OBn)E(OBn)A[dL]L-OH — lower, 91.4%

Same assay, conditions: purification step

With cyclo([dD][Hyp](Bn)D[dL]L[dW]) the step yield was 79.0%.

HELM strings list residues between dots; [ac] is acetyl, [am] amide, other brackets name non-standard units. Non-standard residues stand in square brackets, D forms with d. *: point of attachment. Hyp = O=C(O)[C@@H]1C[C@@H](O)CN1; dPhg = N[C@@H](C(=O)O)c1ccccc1; dTle = CC(C)(C)[C@@H](N)C(=O)O; OPac = O=C(CO*)c1ccccc1; Boc = CC(C)(C)OC(=O)*; OBn = c1ccc(CO*)cc1; Bn = c1ccc(C*)cc1
